These are yes or no findings as the source states them, for the method shown. In cells and extracts the contact can be indirect. Some entries that bind do so weakly or less than the wild type.
What was measured:
[1] = biological target: Beclin-1 (human (endogenous in osteosarcoma cells)) (UniProt Q14457); assay: co-IP; antibody added to cell lysate for 3 h at 4 °C, protein A-agarose for 1 h, three washes with lysis solution, western blot; precipitating antibody and cell line not stated
Recombinant GST-Beclin-1 = Recombinant GST-Beclin-1 (UniProt Q14457); assay: pull-down; recombinant GST-Beclin-1 on glutathione magnetic agarose beads (blocked with 5% BSA), incubated with KHOS cell lysate for 60 min at 37 °C, western blot; only the target purified

Sequences of proteins named here, by UniProt entry; tags and fusion partners are left off.
UniProt Q14457: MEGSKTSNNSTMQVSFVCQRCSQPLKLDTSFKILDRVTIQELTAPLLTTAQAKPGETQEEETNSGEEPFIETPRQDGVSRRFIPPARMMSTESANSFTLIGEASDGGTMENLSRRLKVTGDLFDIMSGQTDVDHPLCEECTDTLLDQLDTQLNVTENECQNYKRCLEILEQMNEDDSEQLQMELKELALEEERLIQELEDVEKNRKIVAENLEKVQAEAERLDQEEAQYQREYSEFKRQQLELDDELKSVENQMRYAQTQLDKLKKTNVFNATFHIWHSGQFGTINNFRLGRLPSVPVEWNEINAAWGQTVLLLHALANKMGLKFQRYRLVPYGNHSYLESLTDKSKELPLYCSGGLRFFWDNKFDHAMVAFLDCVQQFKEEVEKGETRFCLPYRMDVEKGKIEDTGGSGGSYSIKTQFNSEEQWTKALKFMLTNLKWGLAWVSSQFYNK

B1: Sialic acid-bound immunoglobulin lectin 15 (Siglec-15) (protein, UniProt Q6ZMC9 20-328)
chain: FVRTKIDTTENLLNTEVHSSPAQRWSMQVPPEVSAEAGDAAVLPCTFTHPHRHYDGPLTAIWRAGEPYAGPQVFRCAAARGSELCQTALSLHGRFRLLGNPRRNDLSLRVERLALADDRRYFCRVEFAGDVHDRYESRHGVRLHVTAAPRIVNISVLPSPAHAFRALCTAEGEPPPALAWSGPALGNSLAAVRSPREGHGHLVTAELPALTHDGRYTCTAANSLGRSEASVYLFRFHGASGASTVALLLGALGFKALLLLGVLAARAARRRPEHLDTPDTPPRSQAQESNYENLSQMNPRSPPATMCSP
binding [1]: binds | binding (Recombinant GST-Beclin-1): binds

Source: article PMC9287887
